Results on 2 sequences are retold here after article PMC12169211.

The exact form of at least one protein or probe is not confirmed. A weaker result is weaker than the reference pair of the same experiment. Whether high values mean tight binding is not given here for every scale.

The test system of this series is thrombin (biotinylated, immobilized on streptavidin microparticles). Kind of series: microparticle flow cytometry, trigger displacement. The note with it: Thrombin-microparticles incubated with 0.5-200 nM FAM-aptamer, washed with DPBS, binding buffer, pH and temperature not stated, protein details: biotin, label: 5' FAM on 15-mer strand, folded or branched DNA; for binding signal (% aptamer dissociated): DNA trigger of 29-mer-Sticky-TH (S5).

For “GGTTGGTGTGGTTGGTTTTTGACCCTGCGTACC / AGTCCGTGGTAGGGCAGGTTGGGGTGACTTTTTTGGTACGCAGGTC”, where the note is “DNA triggers of 15-mer (S3) and 29-mer (S4), 0.5:1 to 10:1 to aptamer, 500 nM HBA”, the binding result is reported as “binds more weakly”.
For the sequence “GGTTGGTGTGGTTGGTTTTTGACCCTGCGTACC / AGTCCGTGGTAGGGCAGGTTGGGGTGACTTTTTTGGTACGCAGGTCCGTTA”, the binding signal (% aptamer dissociated) is 50 (0.5:1, 500 nM THBA) and 80 (5:1, 500 nM THBA).
